Among the data in paper PMC5626683 are binding values, retold here.

In this test the target is MreC from Helicobacter pylori (residues 37-248), GST removed by thrombin (H. pylori) (UniProt B5Z916). Briefly: crystal structure; PBP2:MreC complex (GST removed), vapor diffusion at 20 °C, 5% PEG 6000, 50 mM citric acid pH 5.0, 9 mM ZnCl2; 2 PBP2 and 4 MreC in the asymmetric unit; both purified.

These are yes or no findings as the source states them, for the method shown. Some entries that bind do so weakly or less than the wild type. Sequences can lack the tags named with a protein.

B1: MreC from Helicobacter pylori (residues 37-248), GST removed by thrombin (domain or fragment, UniProt B5Z916 37-248)
chain: LMSAKNSLLDNIQAYFFQAKNIKEFQKERLILEALKLENADLKERLNSVYPLENPKMIYSPTFMTSFISLEDTHSVSLNPIVNLEENKIYGLVSHNQAIGIAVLEKGRLNGFLNAHKRCAYSVMIGKNQVLGFIGSNFKQELVVDFIVPSAEINIGDQVLTSGLDGIFGAGVFVGEVSSVEDHYTYKSAVLKNAFLSEAKLLRHVFLSDVKN
Regarding B1, the binding entry is “binds”.
